Results: PubChem BioAssay AID504327 (National Center for Advancing Translational Sciences (NCATS), 2011)
Screen size: about 390,000 compounds; about 820 (0.21%) were called active. The shares of active, inactive and inconclusive entries below differ from those in the screen. The call rests on the fitted dose curve; in most records, active means well fitted inhibition curve with a large enough effect; inconclusive means small, poorly fitted or top-dose-only effect, or another doubt; inactive means no such curve, though single readings can be large or run the other way. Where the call is inconclusive, the potency comes from a doubtful curve fit.

Protein sequences, listed by entry. Tags and fused reporters are not part of them.
UniProt Q92830, whole entry, looked up: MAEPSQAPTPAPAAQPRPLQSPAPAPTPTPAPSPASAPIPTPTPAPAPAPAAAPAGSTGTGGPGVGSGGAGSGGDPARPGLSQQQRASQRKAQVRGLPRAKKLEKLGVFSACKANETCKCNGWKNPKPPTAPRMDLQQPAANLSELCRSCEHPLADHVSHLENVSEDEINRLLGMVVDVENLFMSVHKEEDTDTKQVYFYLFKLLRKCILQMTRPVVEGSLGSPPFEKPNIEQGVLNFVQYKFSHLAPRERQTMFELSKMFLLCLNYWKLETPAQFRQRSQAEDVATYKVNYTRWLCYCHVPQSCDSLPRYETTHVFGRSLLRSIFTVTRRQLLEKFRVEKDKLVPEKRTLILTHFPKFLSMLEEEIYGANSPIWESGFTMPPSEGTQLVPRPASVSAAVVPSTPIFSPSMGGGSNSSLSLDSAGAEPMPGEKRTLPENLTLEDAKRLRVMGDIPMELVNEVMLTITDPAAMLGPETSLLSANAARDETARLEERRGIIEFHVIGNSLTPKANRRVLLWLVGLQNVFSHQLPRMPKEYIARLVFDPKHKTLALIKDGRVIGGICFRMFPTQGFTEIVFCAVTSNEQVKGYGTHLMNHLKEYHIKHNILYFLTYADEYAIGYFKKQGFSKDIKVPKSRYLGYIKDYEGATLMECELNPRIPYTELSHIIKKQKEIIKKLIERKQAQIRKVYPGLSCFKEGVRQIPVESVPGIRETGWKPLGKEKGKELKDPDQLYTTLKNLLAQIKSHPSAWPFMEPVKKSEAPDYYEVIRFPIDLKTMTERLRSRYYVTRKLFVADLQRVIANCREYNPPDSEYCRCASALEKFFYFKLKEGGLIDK

Target: Histone acetyltransferase KAT2A (Homo sapiens) (UniProt Q92830)
Assay: qHTS Assay for Inhibitors of GCN5L2
Conditions: GCN5L2 HAT assay, ThioGlo1 CoA-SH fluorescence; activity change, negative = inhibition: at 58.9 µM (top of the series) unless noted
In short: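 Fluorescence readout, Ex340nm/Em540nm: ThioGlo1 (50uM final) reacts with free CoA thiol released as 20nM GCN5L2 acetylates H3(1-25) peptide (75uM) using acetyl-CoA (70uM). Compound and enzyme sat 15 min beforehand; 20 min room-temperature reaction.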
On the % scale 0 is the no-effect control and ±100 the full control effect; potency means the concentration at half of the fitted maximal effect.

Compound	activity change, negative = inhibition	Potency
Oc1cc(Br)ccc1C=Nc1ccc(N2CCCCC2)cc1	inactive: -19.2%	–
Cc1n[nH]c(=S)n(NC(=O)CC(=O)Nn2c(=S)[nH]nc(C)c2=O)c1=O	inactive: -0.84%	–
O=C(CSc1nc(O)c(Cc2ccccc2)c(=O)[nH]1)Nc1nnc(SCc2ccccc2)s1	–	inconclusive: 35.5 µM [inhibitor, single point]
O=C(Cn1nnc2c(cnn2-c2ccc(F)cc2)c1=O)c1ccccc1F	–	inconclusive: 5.01 µM [inhibitor, full curve, poor fit]
CCCC(c1nnnn1CCOC)N(Cc1cc2cc(C)c(C)cc2[nH]c1=O)CC1CCCO1 (centres undefined)	–	inconclusive: 39.8 µM [inhibitor, single point]
O=C(Cc1ccccc1)NNC(=O)Nc1cccc(Cl)c1	–	inconclusive: 6.31 µM [inhibitor, single point]
O=C(O)CC(CC(=O)Nc1ccc(F)c(Cl)c1)c1ccc(Cl)cc1Cl (centres undefined)	–	inconclusive: 0.562 µM [inhibitor, full curve]
CCCC(=O)Nc1ccc(C(=O)N/N=C/c2ccc([N+](=O)[O-])o2)cc1	–	inconclusive: 39.8 µM [inhibitor, single point]
N#CC1=C2SCN(C3CCCCC3)CN2C(=O)CC1c1ccc(Cl)cc1 (centres undefined)	–	inconclusive: 14.1 µM [inhibitor, partial curve]
COc1ccc(NC(=S)NNc2ccc(S(=O)(=O)Nc3ccccc3C(=O)O)cc2[N+](=O)[O-])cc1	–	inconclusive: 28.2 µM [inhibitor, single point]
CCOC(=O)C1CCN(C(=O)N(C)C)CC1	–	inconclusive: 6.31 µM [inhibitor, partial curve]
COc1cc(C2C(=O)N(C3CCCCC3)CC(=O)N2C2CCCCC2)ccc1OC(C)C (centres undefined)	inactive: -0.631%	–
CCOC(=O)c1oc2ccc(S(=O)(=O)n3nc(-c4ccc(Cl)cc4)cc3N)cc2c1C	inactive: -10.6%	–
O=c1c2ccccc2nc(/C=C/c2cccnc2)n1CCc1ccccc1	–	inconclusive: 35.5 µM [inhibitor, single point]
CCOC(=O)c1cnn(-c2ccccc2)c1-n1cccc1C(=O)C(=O)Nc1ccc(F)cc1	–	inconclusive: 3.55 µM [inhibitor, full curve]
Cc1ccc(S(=O)(=O)N2[C@@H](c3ccc(Cl)cc3)C(C(=O)O)=CC[C@H]2c2ccc(Cl)c(Cl)c2)cc1	–	inconclusive: 39.8 µM [inhibitor, single point]
Cc1cc(OC(=O)c2ccccc2F)c([N+](=O)[O-])c(=O)[nH]1	inactive: -5.75%	–
Cc1cc(C)c(S(=O)(=O)n2cnc3ccccc32)c(C)c1	–	inconclusive: 39.8 µM [inhibitor, single point]
O=C(c1sc2cc(Cl)ccc2c1Cl)N1CCN(CCc2ccccn2)CC1	inactive: 0.137%	–
CC(C)OCCCNC(=O)CN1C(=O)COc2ccc(S(=O)(=O)N3CCCCCC3)cc21	–	inconclusive: 7.94 µM [inhibitor, single point]
CCOc1cc(/C=C(\C#N)C(=O)Nc2cccc(C(=O)O)c2)ccc1OCc1ccc(Br)cc1	–	inconclusive: 12.6 µM [inhibitor, partial curve]
COc1ccc(C=NNc2ccc([N+](=O)[O-])cc2S(=O)(=O)Nc2ccccc2C(=O)O)cc1OC	–	inconclusive: 35.5 µM [inhibitor, single point]
COC(=O)c1cc2occc2n1CC(=O)Nc1ccc(OC)c(OC)c1	–	inconclusive: 0.794 µM [inhibitor, full curve, poor fit]

Compound	activity change, negative = inhibition	Potency
COC(=O)CCCC1=CC2=CC(=O)C(C)(OC(=O)C3CCCC3)C(=O)C2=CO1 (centres undefined)	inactive: -0.82%	–
CCOC(=O)c1cc(CO)cc(C(=O)OCC)c1	–	inconclusive: 3.55 µM [inhibitor, full curve]
CC(C)c1ccc(C2CC(=O)N3CN(Cc4ccco4)CSC3=C2C#N)cc1 (centres undefined)	–	inconclusive: 25.1 µM [inhibitor, single point]
COc1ccc(Nc2nc(C(=O)N(CCO)Cc3ccccc3)cs2)cc1	inactive: -3.22%	–
CS(=O)(=O)Nc1cccc(C2=NN(C(=O)c3ccco3)C(c3ccco3)C2)c1 (centres undefined)	inactive: -1.3%	–
O=C(CN1C(=O)COc2ccccc21)NCCc1ccc(Cl)cc1	inactive: -20.6%	–
CCOC(=O)Cc1csc(NC(=O)Cn2cnc3c2c(=O)n(C)c(=O)n3C)n1	–	inconclusive: 15.8 µM [inhibitor, partial curve, poor fit]
CC=CC1=C(C(=O)O)N2C(=O)[C@H](NC(=O)[C@H](N)c3ccc(O)cc3)[C@@H]2SC1	–	inconclusive: 25.1 µM [inhibitor, single point]
O=C(O)CN1C(=O)/C(=C\c2cc(Br)ccc2OCc2ccccc2Cl)SC1=S	–	inconclusive: 31.6 µM [inhibitor, single point]
CCCCc1ccc(S(=O)(=O)NCCCN2CCCC2=O)cc1	–	inconclusive: 5.01 µM [inhibitor, full curve, poor fit]
O=[N+]([O-])c1cccnc1N1CCC(c2cc(-c3ccc(Cl)cc3)n[nH]2)CC1	inactive: 1.66%	–
COc1ccc(-c2noc(N3CCC(C(=O)NCc4ccccc4Cl)CC3)n2)cc1	–	inconclusive: 6.31 µM [inhibitor, single point]
CCCCN(C)C(=O)C1CCCN(S(=O)(=O)c2ccc3c(c2)oc(=O)n3C)C1 (centres undefined)	–	inconclusive: 39.8 µM [inhibitor, single point]
CC(C)(C)n1nnnc1C(c1ccccn1)N1CCN(C(c2ccccc2)c2ccccc2)CC1 (centres undefined)	–	inconclusive: 39.8 µM [inhibitor, single point]
COC(=O)C1=C(C)N(c2ccc(Cl)c(Cl)c2)C(=O)C1	inactive: 2.25%	–
CCOc1nnc(C)c2c(C)n(-c3ccc(Cl)cc3)nc12	–	inconclusive: 5.01 µM [inhibitor, single point]
Cc1cc(-c2ccc(C)c(S(=O)(=O)NCc3cccc(Br)c3)c2)on1	–	inconclusive: 0.562 µM [inhibitor, full curve, poor fit]
COC(=O)c1ccc(CSc2nnc(NC(C)C)s2)cc1	–	inconclusive: 39.8 µM [inhibitor, single point]
COc1ccc(CNC(=O)C2CCC(CNS(=O)(=O)c3cccc4cccnc34)CC2)cc1 (centres undefined)	–	inconclusive: 10 µM [inhibitor, partial curve]
Cc1cccc(-n2c(SCC(=O)NCC3CCCO3)nc3ccccc3c2=O)c1C (centres undefined)	inactive: 1.08%	–
O=C(Cc1ccsc1)NCc1ccccc1F	–	inconclusive: 0.631 µM [inhibitor, single point]
CCCCC1(C)OC(=O)C(=Cc2ccc(N(C)C)cc2)C(=O)O1 (centres undefined)	–	inconclusive: 2.51 µM [inhibitor, partial curve, poor fit]
Cn1c(=O)cc(SCC(=O)N2CCCC2)c2ccccc21	–	inconclusive: 7.08 µM [inhibitor, single point]

Of the compounds above, two contain a thiophene ring, fused or not:
Compound	activity change, negative = inhibition	Potency
O=C(c1sc2cc(Cl)ccc2c1Cl)N1CCN(CCc2ccccn2)CC1	inactive: 0.137%	–
O=C(Cc1ccsc1)NCc1ccccc1F	–	inconclusive: 0.631 µM [inhibitor, single point]

Remaining list, next part.

Compound	activity change, negative = inhibition	Potency
CC(=O)N1CCCc2cc(S(=O)(=O)N(C)Cc3ccccc3)ccc21	inactive: -20.3%	–
COc1ccc(N2CCN(C(=O)NC(=O)c3ccccc3)CC2)cc1	–	inconclusive: 0.251 µM [inhibitor, full curve, poor fit]
CCN1CCN(c2ccc(N3CCN(S(=O)(=O)c4cc([N+](=O)[O-])ccc4C)CC3)nn2)CC1	–	inconclusive: 39.8 µM [inhibitor, single point]
Cc1c(OCC(=O)Nc2cccnc2)ccc2c3c(c(=O)oc12)CCC3	–	inconclusive: 15.8 µM [inhibitor, partial curve, poor fit]
CCOC(=O)c1ccc(NC(=O)CC2C(=O)N(c3ccc(F)cc3)C(=O)N2Cc2cccnc2)cc1 (centres undefined)	inactive: 3.55%	–
Cc1ccc(O)c(Nc2nc(-c3ccccc3)nc3ccccc23)c1	–	inconclusive: 39.8 µM [inhibitor, single point]
Cc1ccc2[nH]c(C(=O)N/N=C/c3ccccc3C(=O)O)c(-c3ccccc3)c2c1	–	inconclusive: 10 µM [inhibitor, partial curve]
O=C(c1cccc(NC2=NC3CS(=O)(=O)CC3S2)c1)N1CCN(c2cccc(Cl)c2)CC1 (centres undefined)	–	inconclusive: 2.82 µM [inhibitor, partial curve]
O=C1CCCC2=C1C(c1cccs1)n1nc(SCc3ccc(C(=O)O)cc3)nc1N2 (centres undefined)	–	inconclusive: 39.8 µM [inhibitor, single point]
COc1ccc(CNC(=O)C2CC(C)=C(C)CC2C(=O)O)cc1 (centres undefined)	inactive: -12.8%	–
CCC(=O)NCC(c1cccs1)S(=O)(=O)c1ccc(C)cc1 (centres undefined)	inactive: -4.55%	–
Cc1cc(C)n2nc(CC#N)c(C#N)c2n1	inactive: -4.52%	–
O=C(Oc1ccc(C(=S)N2CCOCC2)cc1)c1ccc([N+](=O)[O-])cc1[N+](=O)[O-]	inactive: -2.4%	–
CCc1ccccc1NC(=O)Cn1nc(C(F)(F)F)cc1C1CC1	inactive: 0.761%	–
COc1ccc(Nc2nc3ccccc3nc2NS(=O)(=O)c2cccs2)cc1	inactive: -20.1%	–
COc1cccc(CNC(=O)c2cc(C)nc3c2c(C)nn3-c2ccc(C)cc2)c1	inactive: -25%	–
CCOC(=O)N1CCC(NC(=O)c2cc(C(=O)Nc3ccc(OCC)cc3)ccc2CO)CC1	–	inconclusive: 39.8 µM [inhibitor, single point]
CC(C(=O)OCC(=O)NC1CCCCC1)N1C(=O)c2ccccc2C1=O (centres undefined)	inactive: -5.61%	–
CCc1ccc(NC(=O)c2ccc(CN3CC(=O)N4CCCCC4C3=O)cc2)cc1 (centres undefined)	inactive: 1.02%	–
Cc1ccc(C(C)C)c(OCCSc2nc(-c3ccccc3F)nc3cc(=O)[nH]n23)c1	inactive: -14.6%	–
O=C(C[n+]1cc(-c2ccc(Cl)cc2)n2c1CCC2)N1c2ccccc2Sc2ccccc21	inactive: -1.61%	–
COc1cc(/C=C(\C#N)C(N)=O)ccc1OS(=O)(=O)c1ccc(C)cc1	inactive: -7.42%	–
O=C(NCCCN1CCOCC1)c1ccc(NS(=O)(=O)c2cccc([N+](=O)[O-])c2)cc1	–	inconclusive: 3.98 µM [inhibitor, single point]

Whole records, looked up by structure. Values in the order: activity change, negative = inhibition	Potency
O=C(O)CN1C(=O)/C(=C\c2cc(Br)ccc2OCc2ccccc2Cl)SC1=S as listed: –	inconclusive: 31.6 µM [inhibitor, single point]
CCCCC1(C)OC(=O)C(=Cc2ccc(N(C)C)cc2)C(=O)O1 (centres undefined) as listed: –	inconclusive: 2.51 µM [inhibitor, partial curve, poor fit]
